PubChem BioAssay AID686943 | Drosophila RNAi Screening Center | 2013

- Aim: 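Knockdowns that increase or decrease active ERK after insulin receptor stimulation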 (primary screen)
- System: Drosophila S2R+ haemocyte-like cells expressing YFP-tagged ERK (Rolled)
- Knock-down reagent: long dsRNA against Drosophila genes
- Challenge: insulin stimulation versus unstimulated cells; dose and duration not given
- Read-out: 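Per-plate z-scores of phospho-ERK immunostaining normalised to YFP-tagged ERK, measured with and without insulin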
- Reading the numbers: replicate 1, z-score of dpERK with insulin: higher = more active ERK per ERK-YFP after insulin
The deposit covers about 23,000 reagents; shown is a random part of those that have a named target and a result. 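Extra replicates exist only for a retested subset of genes; insulin dose and duration not given; both raised and lowered dpERK matter.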 Names joined by + are all predicted targets of the reagent. Further read-outs or replicates are left out here. The record does not give: the amount of reagent, the time to read-out.

no.	predicted target	DRSC id	replicate 1, z-score of dpERK with insulin
1	gd	DRSC20336	0.08
2	CG6729	DRSC02984	-0.73
3	CG6729	DRSC22793	-0.1
4	Spn42Dc	DRSC05010	0.91
5	AANATL5	DRSC05994	0.56
6	CG42552 (retired record)	DRSC11512	-0.18
7	croc	DRSC11884	0.46
8	Lkr	DRSC09754	-0.33
9	CG14218	DRSC19575	-0.18
10	Pex3	DRSC10731	0.05
11	Oda	DRSC07626	-0.43
12	twe	DRSC03628	-0.14
13	eIF4B	DRSC20983	-0.69
14	CG17974	DRSC04299	0.32
15	CG9921	DRSC20220	1.09
16	Acsx4	DRSC14311	0.6
17	Ns4	DRSC03199	0.63
18	sqa	DRSC06693	0.21
19	sqa	DRSC21635	0.38
20	Phax	DRSC07066	0
21	CG11403	DRSC18532	-0.72
22	CG31496	DRSC12547	0.65
23	REPTOR-BP	DRSC02683	-0.5
24	CG1523	DRSC15033	-0.25
25	CG14826	DRSC10197	-0.06
26	unc	DRSC20511	-0.52
27	Spg7	DRSC18469	0.33
28	dec	DRSC18759	1.8
29	dec	DRSC21477	0.36
30	CG32445	DRSC11678	0.59
31	CG8654	DRSC07231	-0.73
32	lin-52	DRSC18106	0.21
33	CG8679	DRSC03109	0.79
34	CG2202	DRSC19841	1.67
35	CG16896	DRSC04284	1.14
36	mav	DRSC17149	-0.26
37	pyd	DRSC12712	1.59
38	pyd	DRSC14387	0.71
39	pyd	DRSC14445	-0.4
40	pyd	DRSC14509	0.14
41	pyd	DRSC16547	-0.4
42	pyd	DRSC16548	-0.03
43	pyd	DRSC17041	0.43
44	pyd	DRSC21523	-0.31
45	boil	DRSC17872	0.78
46	CG6839	DRSC10723	-0.2
47	PrBP	DRSC03189	1.31
48	dgrn	DRSC12154	0.28
49	CG9672	DRSC20201	0.72
50	CG5913	DRSC15916	0.73
51	CG13901	DRSC08371	-0.09
52	shu	DRSC04484	-0.7
53	abd-A	DRSC13179	-0.64
54	abd-A	DRSC16897	-1.49
55	Indy-2 + CG33934	DRSC15685	-0.4
56	Indy-2 + CG33934	DRSC15686	-0.31
57	Cyp6g1	DRSC07386	-0.38

3 neighbouring records already listed:
no.	predicted target	DRSC id	replicate 1, z-score of dpERK with insulin
42	pyd	DRSC16548	-0.03
43	pyd	DRSC17041	0.43
44	pyd	DRSC21523	-0.31
